In the supplement of paper PMC6078165:

System: MDAMB231
Assay: relative JC-1 red fluorescence (viability) vs pre-drug, coculture with fibroblast (fraction); higher = more viable cancer cells
Settings: 1 µM
Procedure: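 JC-1 labelled TNBC cells cocultured 1:1 (1,500 cells each) with CellTrace Violet stained primary or stromal fibroblasts in 384-well plates in FluoroBrite medium, treated with one of 42 anticancer drugs at 0.1, 1, 10 or 100 uM. JC-1 red fluorescence (mitochondrial integrity in cancer cells only) was read by plate reader every 8 h for 72 h. Values are normalised to each well's pre-drug value. The stock of one drug was tenfold lower, so its dose labels may be too high.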

CC[C@]1(O)C[C@H]2CN(CCc3c([nH]c4ccccc34)[C@@](C(=O)OC)(c3cc4c(cc3OC)N(C=O)[C@H]3[C@@](O)(C(=O)OC)[C@H](OC(C)=O)[C@]5(CC)C=CCN6CC[C@]43[C@@H]65)C2)C1 [Vincristine]
relative JC-1 red fluorescence
Settings | 8 h | 16 h | 24 h | 32 h | 40 h | 48 h | 56 h | 64 h | 72 h
coculture fibroblast: C12385 | 0.758 ± 0.028 | 0.744 ± 0.0087 | 0.592 ± 0.04 | 0.603 ± 0.012 | 0.544 ± 0.009 | 0.504 ± 0.027 | 0.461 ± 0.032 | 0.449 ± 0.044 | 0.439 ± 0.052
coculture fibroblast: H6013 | 0.9058 ± 0.0049 | 0.8637 ± 0.0065 | 0.798 ± 0.045 | 0.761 ± 0.03 | 0.718 ± 0.03 | 0.705 ± 0.04 | 0.69 ± 0.047 | 0.674 ± 0.051 | 0.646 ± 0.062
coculture fibroblast: H6019 | 0.792 ± 0.055 | 0.763 ± 0.1 | 0.691 ± 0.032 | 0.681 ± 0.047 | 0.632 ± 0.03 | 0.629 ± 0.0066 | 0.59 ± 0.023 | 0.596 ± 0.055 | 0.567 ± 0.068
coculture fibroblast: H6076 | 0.913 ± 0.031 | 0.9 ± 0.082 | 0.782 ± 0.084 | 0.753 ± 0.091 | 0.687 ± 0.11 | 0.645 ± 0.097 | 0.602 ± 0.11 | 0.587 ± 0.11 | 0.57 ± 0.11
coculture fibroblast: H6231 | 0.912 ± 0.014 | 0.801 ± 0.024 | 0.7262 ± 0.0056 | 0.697 ± 0.041 | 0.645 ± 0.046 | 0.618 ± 0.073 | 0.572 ± 0.09 | 0.561 ± 0.089 | 0.545 ± 0.1
coculture fibroblast: HADF | 0.9096 ± 0.0055 | 0.87 ± 0.022 | 0.814 ± 0.045 | 0.773 ± 0.045 | 0.707 ± 0.04 | 0.648 ± 0.055 | 0.614 ± 0.047 | 0.585 ± 0.056 | 0.55 ± 0.064
coculture fibroblast: HCFa | 0.8874 ± 0.0018 | 0.823 ± 0.01 | 0.7675 ± 0.0029 | 0.73229 ± 2.3e-05 | 0.6501 ± 0.0032 | 0.605 ± 0.0097 | 0.561 ± 0.013 | 0.5329 ± 0.0042 | 0.483 ± 0.0083
coculture fibroblast: HCPF | 0.88 ± 0.016 | 0.777 ± 0.013 | 0.678 ± 0.035 | 0.661 ± 0.033 | 0.603 ± 0.039 | 0.561 ± 0.034 | 0.521 ± 0.033 | 0.496 ± 0.027 | 0.467 ± 0.025
coculture fibroblast: HHSteC | 0.9146 ± 0.0025 | 0.8616 ± 0.0021 | 0.8008 ± 0.0039 | 0.7589 ± 0.0041 | 0.702 ± 0.011 | 0.674 ± 0.02 | 0.627 ± 0.0099 | 0.605 ± 0.0078 | 0.565 ± 0.017
coculture fibroblast: HMF | 0.8755 ± 0.004 | 0.7741 ± 0.0045 | 0.6806 ± 0.0057 | 0.64 ± 0.0087 | 0.588 ± 0.012 | 0.552 ± 0.012 | 0.5114 ± 0.001 | 0.489 ± 0.0088 | 0.482 ± 0.012
coculture fibroblast: HPFa | 0.9551 ± 0.0058 | 0.928 ± 0.04 | 0.837 ± 0.014 | 0.79 ± 0.021 | 0.731 ± 0.025 | 0.695 ± 0.018 | 0.626 ± 0.012 | 0.604 ± 0.0078 | 0.557 ± 0.014
coculture fibroblast: HUF | 0.853 ± 0.018 | 0.756 ± 0.022 | 0.737 ± 0.04 | 0.63 ± 0.034 | 0.565 ± 0.034 | 0.545 ± 0.036 | 0.493 ± 0.038 | 0.494 ± 0.034 | 0.483 ± 0.047
coculture fibroblast: Hs5 | 0.918 ± 0.019 | 0.833 ± 0.014 | 0.7273 ± 0.005 | 0.672 ± 0.0074 | 0.615 ± 0.0075 | 0.5532 ± 0.0023 | 0.507 ± 0.0047 | 0.482 ± 0.011 | 0.46 ± 0.018
coculture fibroblast: Hs27A | 0.8928 ± 0.0059 | 0.8209 ± 0.0013 | 0.766 ± 0.0094 | 0.7428 ± 0.0042 | 0.685 ± 0.01 | 0.618 ± 0.019 | 0.615 ± 0.029 | 0.581 ± 0.026 | 0.538 ± 0.0076
coculture fibroblast: Hs343T | 0.908 ± 0.029 | 0.817 ± 0.051 | 0.695 ± 0.036 | 0.643 ± 0.03 | 0.564 ± 0.033 | 0.516 ± 0.028 | 0.459 ± 0.021 | 0.434 ± 0.021 | 0.409 ± 0.031
coculture fibroblast: WS1 | 0.76 ± 0.0082 | 0.723 ± 0.022 | 0.584 ± 0.015 | 0.562 ± 0.022 | 0.497 ± 0.038 | 0.464 ± 0.021 | 0.421 ± 0.017 | 0.42 ± 0.0079 | 0.409 ± 0.0041

± gives the standard deviation of the averaged measurements. The reference is the same well before dosing, and untreated signal decays as well.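 Labels refer to human fibroblasts, largely primary: uterine (C12385, HUF), lung (H6013), bone (Hs27A), adrenal (HADF), skin (WS1), plus mammary HMF and breast cancer-associated Hs343T. Cancer lines are basal-like or mesenchymal-like triple-negative breast cancer. The paper counts as hits responses shifting over 3x the replicate standard deviation. The tissue of the other fibroblasts is not given here.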
